# Results deposited as PubChem BioAssay AID1224828 (NIAID, 2016).
# Aim: 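Find genes required for NF-kappaB p65 moving into the nucleus after LPS in mouse macrophages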 (primary screen)
# System: mouse RAW264.7 G9 macrophage reporter cells (GFP-p65, Tnf promoter-mCherry)
# Knock-down reagent: siRNA pool against mouse genes, 100 nM
# Timing: 2 days siRNA transfection, then 40 min LPS before fixation
# Conditions: LPS (Salmonella minnesota R595) at 10 ng/ml
# Measurement: 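Microscopy ratio of nuclear to perinuclear-ring GFP-p65 signal, scaled to the plate median; gene score is the average of two replicate robust z-scores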
# Reading the numbers: p65 translocation robust z-score: higher = more nuclear NF-kappaB p65 after LPS than the plate median; nuclear/cytoplasmic p65 ratio: higher = more nuclear NF-kappaB p65
# Rule for the call: 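Called active when z exceeds 3.3 or falls under -1.56 (median of Tlr4 controls), giving activity score of at least 50; no calls for control wells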
# Calls: active = hit (p65 shift raised or lowered); inactive = no clear change
# Here is a random part of about 17,000 deposited reagents. 762 of them (4.5%) were called active. 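Active calls include both raised and lowered p65 entry, mostly lowered; wells with fewer than 50 cells lack a z-score.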 The raw values are shown without normalisation. The numbers tell different reagents against one gene apart.
gene symbol,reagent,p65 translocation robust z-score,"nuclear/cytoplasmic p65 ratio, rep 1","nuclear/cytoplasmic p65 ratio, rep 2",low cell count flag,outcome
Spty2d1 (SPT2 chromatin protein domain containing 1),1,-0.54,1.25,1.44,enough cells to score,inactive
Pcdhb2 (protocadherin beta 2),1,-0.09,1.37,1.46,enough cells to score,inactive
Rfwd3 (ring finger and WD repeat domain 3),1,0.06,1.61,1.83,enough cells to score,inactive
Fgf5 (fibroblast growth factor 5),1,-0.41,1.28,1.41,enough cells to score,inactive
Wwox (WW domain-containing oxidoreductase),1,0.07,1.62,1.42,enough cells to score,inactive
Sbf2 (SET binding factor 2),1,0.04,1.72,1.66,enough cells to score,inactive
"Alpl (alkaline phosphatase, liver/bone/kidney)",1,-1.82,1.32,1.37,enough cells to score,active
Capn9 (calpain 9),1,0.42,1.48,1.84,enough cells to score,inactive
"Cnot7 (CCR4-NOT transcription complex, subunit 7)",1,0.04,1.47,1.38,enough cells to score,inactive
Far2 (fatty acyl CoA reductase 2),1,0.13,1.78,1.63,enough cells to score,inactive
Vbp1 (von Hippel-Lindau binding protein 1),1,-0.48,1.48,1.4,enough cells to score,inactive
Oser1 (oxidative stress responsive serine rich 1),1,-0.29,1.31,1.22,enough cells to score,inactive
Tex56 (testis expressed 56),1,-0.42,1.31,1.46,enough cells to score,inactive
"Klra21 (killer cell lectin-like receptor subfamily A, member 21)",1,-0.95,1.42,1.2,enough cells to score,inactive
Api5 (apoptosis inhibitor 5),1,-0.45,1.59,1.51,enough cells to score,inactive
Kiss1r (KISS1 receptor),1,-1.42,1.3,1.38,enough cells to score,inactive
"Tubgcp3 (tubulin, gamma complex component 3)",1,0.57,1.72,1.46,enough cells to score,inactive
Or51l4 (olfactory receptor family 51 subfamily L member 4),1,,1.43,1.42,fewer than 50 cells per well; well left out of scoring,inactive
Hacd3 (3-hydroxyacyl-CoA dehydratase 3),1,,1.22,1.5,fewer than 50 cells per well; well left out of scoring,inactive
"H2-K1 (histocompatibility 2, K1, K region)",1,0.48,1.38,1.55,enough cells to score,inactive
"H2-K1 (histocompatibility 2, K1, K region)",2,-2.26,1.4,1.19,enough cells to score,active
5830402J09,1,1.63,1.51,1.74,enough cells to score,inactive
Cox7b (cytochrome c oxidase subunit 7B),1,-0.51,1.58,1.61,enough cells to score,inactive
Pcsk9 (proprotein convertase subtilisin/kexin type 9),1,,1.37,1.23,fewer than 50 cells per well; well left out of scoring,inactive
Ndufv2 (NADH:ubiquinone oxidoreductase core subunit V2),1,0.89,1.52,1.49,enough cells to score,inactive
Usp33 (ubiquitin specific peptidase 33),1,0.14,1.58,1.48,enough cells to score,inactive
Galr1 (galanin receptor 1),1,-0.46,1.34,1.35,enough cells to score,inactive
Ipo11 (importin 11),1,0.35,1.62,1.46,enough cells to score,inactive
Zbtb48 (zinc finger and BTB domain containing 48),1,0.73,1.75,1.66,enough cells to score,inactive
Ifi47 (interferon gamma inducible protein 47),1,-0.56,1.52,1.31,enough cells to score,inactive
Pxdc1 (PX domain containing 1),1,-0.39,1.4,1.47,enough cells to score,inactive
Os9 (amplified in osteosarcoma),1,,1.16,1.31,fewer than 50 cells per well; well left out of scoring,inactive
Ly6e (lymphocyte antigen 6 family member E),1,-1.21,1.53,1.41,enough cells to score,inactive
Or7a40 (olfactory receptor family 7 subfamily A member 40),1,-0.01,1.54,1.56,enough cells to score,inactive
Vmn1r80 (vomeronasal 1 receptor 80),1,-0.39,1.34,1.15,enough cells to score,inactive
Slc33a1,1,,1.13,1.18,fewer than 50 cells per well; well left out of scoring,inactive
Mlh1 (mutL homolog 1),1,-0.12,1.4,1.36,enough cells to score,inactive
Speg (SPEG complex locus),1,0.85,1.78,1.72,enough cells to score,inactive
Or10ag58 (olfactory receptor family 10 subfamily AG member 58),1,-0.04,1.75,1.52,enough cells to score,inactive
1810030O07Rik (RIKEN cDNA 1810030O07 gene),1,2,1.73,1.44,enough cells to score,inactive
Tmem106c (transmembrane protein 106C),1,0.01,1.53,1.84,enough cells to score,inactive
"Tubg1 (tubulin, gamma 1)",1,-0.67,1.54,1.29,enough cells to score,inactive
1700029F12Rik (RIKEN cDNA 1700029F12 gene),1,,1.47,1.37,fewer than 50 cells per well; well left out of scoring,inactive
Csrnp2 (cysteine-serine-rich nuclear protein 2),1,-2.52,1.08,1.42,enough cells to score,active
Atpaf2 (ATP synthase mitochondrial F1 complex assembly factor 2),1,0.24,1.56,1.62,enough cells to score,inactive
Cd163 (CD163 antigen),1,-2.47,1.15,1.07,enough cells to score,active
Anapc15 (anaphase promoting complex C subunit 15),1,1.3,1.41,1.43,enough cells to score,inactive
Rabif (RAB interacting factor),1,0.85,1.48,1.58,enough cells to score,inactive
Usp16 (ubiquitin specific peptidase 16),1,1.52,1.7,1.74,enough cells to score,inactive
Sema5b,1,0.24,1.44,1.28,enough cells to score,inactive
H2bc9 (H2B clustered histone 9),1,-1.38,1.25,1.22,enough cells to score,inactive
"Lgi4 (leucine-rich repeat LGI family, member 4)",1,-0.63,1.65,1.43,enough cells to score,inactive
Cd209b (CD209b antigen),1,-0.25,1.35,1.42,enough cells to score,inactive
Or6c74 (olfactory receptor family 6 subfamily C member 74),1,,1.77,1.45,fewer than 50 cells per well; well left out of scoring,inactive
Hcar1 (hydrocarboxylic acid receptor 1),1,-2.82,1.17,1.11,enough cells to score,active
"H2-Q5 (histocompatibility 2, Q region locus 5)",1,,1.65,1.53,fewer than 50 cells per well; well left out of scoring,inactive
"Gjb1 (gap junction protein, beta 1)",1,0.1,1.12,1.4,enough cells to score,inactive
Mydgf (myeloid derived growth factor),1,0.84,1.66,1.7,enough cells to score,inactive
Stx1a (syntaxin 1A (brain)),1,-0.26,1.56,1.47,enough cells to score,inactive

9 entries already listed, ordered by “nuclear/cytoplasmic p65 ratio, rep 1”, high to low:
gene symbol,reagent,p65 translocation robust z-score,"nuclear/cytoplasmic p65 ratio, rep 1","nuclear/cytoplasmic p65 ratio, rep 2",low cell count flag,outcome
Zbtb48 (zinc finger and BTB domain containing 48),1,0.73,1.75,1.66,enough cells to score,inactive
Ipo11 (importin 11),1,0.35,1.62,1.46,enough cells to score,inactive
Usp33 (ubiquitin specific peptidase 33),1,0.14,1.58,1.48,enough cells to score,inactive
Ly6e (lymphocyte antigen 6 family member E),1,-1.21,1.53,1.41,enough cells to score,inactive
Ndufv2 (NADH:ubiquinone oxidoreductase core subunit V2),1,0.89,1.52,1.49,enough cells to score,inactive
Ifi47 (interferon gamma inducible protein 47),1,-0.56,1.52,1.31,enough cells to score,inactive
Pxdc1 (PX domain containing 1),1,-0.39,1.4,1.47,enough cells to score,inactive
Galr1 (galanin receptor 1),1,-0.46,1.34,1.35,enough cells to score,inactive
Os9 (amplified in osteosarcoma),1,,1.16,1.31,fewer than 50 cells per well; well left out of scoring,inactive
